Laboratory results from the supplement of paper PMC10849652.
The list shows a part of the results. Residues, ends and D or L forms follow the SMILES beside them. *: point of attachment. Cbz = O=C(OCc1ccccc1)*

Sequences of proteins named here, by UniProt entry; tags and fusion partners are left off. A change or cut given only in a name is not applied to a line headed by its entry.
UniProt Q9Y2P8: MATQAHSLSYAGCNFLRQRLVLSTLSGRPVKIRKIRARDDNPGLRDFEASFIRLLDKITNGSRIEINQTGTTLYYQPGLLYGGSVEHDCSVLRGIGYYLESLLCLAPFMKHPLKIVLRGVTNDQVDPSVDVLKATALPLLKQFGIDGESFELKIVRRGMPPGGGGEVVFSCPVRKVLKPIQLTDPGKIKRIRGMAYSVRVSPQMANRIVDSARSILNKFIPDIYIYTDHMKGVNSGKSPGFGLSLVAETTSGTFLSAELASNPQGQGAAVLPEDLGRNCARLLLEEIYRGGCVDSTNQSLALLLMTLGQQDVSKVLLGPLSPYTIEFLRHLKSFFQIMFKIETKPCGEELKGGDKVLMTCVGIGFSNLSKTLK
UniProt O14730: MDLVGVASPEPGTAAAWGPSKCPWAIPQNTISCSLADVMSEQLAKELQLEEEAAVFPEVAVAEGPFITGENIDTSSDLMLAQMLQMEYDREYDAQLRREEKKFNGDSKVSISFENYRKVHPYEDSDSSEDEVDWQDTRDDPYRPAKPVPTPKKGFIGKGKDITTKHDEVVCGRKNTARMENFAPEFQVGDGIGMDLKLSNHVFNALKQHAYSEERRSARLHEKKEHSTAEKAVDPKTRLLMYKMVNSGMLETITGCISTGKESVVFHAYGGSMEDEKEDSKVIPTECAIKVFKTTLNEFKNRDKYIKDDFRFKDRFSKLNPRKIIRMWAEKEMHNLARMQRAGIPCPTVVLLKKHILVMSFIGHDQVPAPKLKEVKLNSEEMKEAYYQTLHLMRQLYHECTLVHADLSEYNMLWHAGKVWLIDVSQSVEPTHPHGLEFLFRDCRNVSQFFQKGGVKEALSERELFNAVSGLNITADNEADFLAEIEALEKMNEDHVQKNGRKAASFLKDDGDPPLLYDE
UniProt Q13546: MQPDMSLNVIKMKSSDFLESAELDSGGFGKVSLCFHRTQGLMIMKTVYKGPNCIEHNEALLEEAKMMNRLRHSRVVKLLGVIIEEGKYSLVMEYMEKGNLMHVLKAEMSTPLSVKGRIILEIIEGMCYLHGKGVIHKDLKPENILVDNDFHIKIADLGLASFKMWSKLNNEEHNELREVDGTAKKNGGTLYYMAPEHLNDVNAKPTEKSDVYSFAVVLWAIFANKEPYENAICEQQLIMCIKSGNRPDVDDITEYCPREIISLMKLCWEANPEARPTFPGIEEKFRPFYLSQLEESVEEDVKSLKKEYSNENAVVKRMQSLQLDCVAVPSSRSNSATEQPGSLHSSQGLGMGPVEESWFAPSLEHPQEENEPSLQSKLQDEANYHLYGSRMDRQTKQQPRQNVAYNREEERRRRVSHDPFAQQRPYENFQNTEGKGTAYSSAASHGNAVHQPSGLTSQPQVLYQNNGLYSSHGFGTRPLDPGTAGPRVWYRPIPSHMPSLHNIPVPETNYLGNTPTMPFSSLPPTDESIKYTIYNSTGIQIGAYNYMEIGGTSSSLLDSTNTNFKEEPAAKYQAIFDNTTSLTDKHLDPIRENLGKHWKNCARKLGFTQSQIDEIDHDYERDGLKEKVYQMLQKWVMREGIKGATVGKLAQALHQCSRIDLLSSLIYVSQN
UniProt P18754: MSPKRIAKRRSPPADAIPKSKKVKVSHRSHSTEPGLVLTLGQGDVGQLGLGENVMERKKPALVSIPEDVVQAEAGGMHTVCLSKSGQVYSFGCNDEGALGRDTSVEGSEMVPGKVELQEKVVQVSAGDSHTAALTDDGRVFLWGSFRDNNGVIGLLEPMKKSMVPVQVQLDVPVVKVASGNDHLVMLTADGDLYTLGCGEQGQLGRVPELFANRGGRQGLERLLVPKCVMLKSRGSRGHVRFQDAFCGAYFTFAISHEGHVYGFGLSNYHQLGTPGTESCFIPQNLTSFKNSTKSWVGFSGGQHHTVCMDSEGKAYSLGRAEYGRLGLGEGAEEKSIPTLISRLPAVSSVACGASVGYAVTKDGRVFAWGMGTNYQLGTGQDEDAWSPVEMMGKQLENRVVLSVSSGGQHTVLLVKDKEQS
UniProt Q96DB5: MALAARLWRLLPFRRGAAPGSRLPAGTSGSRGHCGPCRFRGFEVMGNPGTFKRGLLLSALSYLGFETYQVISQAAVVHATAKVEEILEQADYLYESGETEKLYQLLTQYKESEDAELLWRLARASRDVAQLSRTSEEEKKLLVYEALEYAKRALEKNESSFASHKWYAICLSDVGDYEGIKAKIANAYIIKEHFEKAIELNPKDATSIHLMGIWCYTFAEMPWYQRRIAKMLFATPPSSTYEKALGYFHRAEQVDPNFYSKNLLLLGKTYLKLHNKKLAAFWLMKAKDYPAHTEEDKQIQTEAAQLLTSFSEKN
UniProt P40937, whole entry, looked up: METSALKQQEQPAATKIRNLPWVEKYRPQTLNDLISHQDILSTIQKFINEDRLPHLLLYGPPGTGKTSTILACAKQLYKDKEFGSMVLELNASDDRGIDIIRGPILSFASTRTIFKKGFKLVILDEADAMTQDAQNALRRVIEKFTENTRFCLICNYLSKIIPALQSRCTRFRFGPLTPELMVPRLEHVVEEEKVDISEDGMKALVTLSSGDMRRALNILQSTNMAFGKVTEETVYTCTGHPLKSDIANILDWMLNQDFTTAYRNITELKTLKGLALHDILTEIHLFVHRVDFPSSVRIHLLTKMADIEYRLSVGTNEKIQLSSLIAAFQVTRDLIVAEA
UniProt Q96HR9: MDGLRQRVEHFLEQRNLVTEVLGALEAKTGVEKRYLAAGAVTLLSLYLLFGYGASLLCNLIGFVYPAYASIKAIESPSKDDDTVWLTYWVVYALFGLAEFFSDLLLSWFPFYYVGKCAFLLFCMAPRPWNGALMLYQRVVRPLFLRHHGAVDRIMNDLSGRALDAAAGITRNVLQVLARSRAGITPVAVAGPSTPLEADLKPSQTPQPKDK
UniProt Q4ADV7: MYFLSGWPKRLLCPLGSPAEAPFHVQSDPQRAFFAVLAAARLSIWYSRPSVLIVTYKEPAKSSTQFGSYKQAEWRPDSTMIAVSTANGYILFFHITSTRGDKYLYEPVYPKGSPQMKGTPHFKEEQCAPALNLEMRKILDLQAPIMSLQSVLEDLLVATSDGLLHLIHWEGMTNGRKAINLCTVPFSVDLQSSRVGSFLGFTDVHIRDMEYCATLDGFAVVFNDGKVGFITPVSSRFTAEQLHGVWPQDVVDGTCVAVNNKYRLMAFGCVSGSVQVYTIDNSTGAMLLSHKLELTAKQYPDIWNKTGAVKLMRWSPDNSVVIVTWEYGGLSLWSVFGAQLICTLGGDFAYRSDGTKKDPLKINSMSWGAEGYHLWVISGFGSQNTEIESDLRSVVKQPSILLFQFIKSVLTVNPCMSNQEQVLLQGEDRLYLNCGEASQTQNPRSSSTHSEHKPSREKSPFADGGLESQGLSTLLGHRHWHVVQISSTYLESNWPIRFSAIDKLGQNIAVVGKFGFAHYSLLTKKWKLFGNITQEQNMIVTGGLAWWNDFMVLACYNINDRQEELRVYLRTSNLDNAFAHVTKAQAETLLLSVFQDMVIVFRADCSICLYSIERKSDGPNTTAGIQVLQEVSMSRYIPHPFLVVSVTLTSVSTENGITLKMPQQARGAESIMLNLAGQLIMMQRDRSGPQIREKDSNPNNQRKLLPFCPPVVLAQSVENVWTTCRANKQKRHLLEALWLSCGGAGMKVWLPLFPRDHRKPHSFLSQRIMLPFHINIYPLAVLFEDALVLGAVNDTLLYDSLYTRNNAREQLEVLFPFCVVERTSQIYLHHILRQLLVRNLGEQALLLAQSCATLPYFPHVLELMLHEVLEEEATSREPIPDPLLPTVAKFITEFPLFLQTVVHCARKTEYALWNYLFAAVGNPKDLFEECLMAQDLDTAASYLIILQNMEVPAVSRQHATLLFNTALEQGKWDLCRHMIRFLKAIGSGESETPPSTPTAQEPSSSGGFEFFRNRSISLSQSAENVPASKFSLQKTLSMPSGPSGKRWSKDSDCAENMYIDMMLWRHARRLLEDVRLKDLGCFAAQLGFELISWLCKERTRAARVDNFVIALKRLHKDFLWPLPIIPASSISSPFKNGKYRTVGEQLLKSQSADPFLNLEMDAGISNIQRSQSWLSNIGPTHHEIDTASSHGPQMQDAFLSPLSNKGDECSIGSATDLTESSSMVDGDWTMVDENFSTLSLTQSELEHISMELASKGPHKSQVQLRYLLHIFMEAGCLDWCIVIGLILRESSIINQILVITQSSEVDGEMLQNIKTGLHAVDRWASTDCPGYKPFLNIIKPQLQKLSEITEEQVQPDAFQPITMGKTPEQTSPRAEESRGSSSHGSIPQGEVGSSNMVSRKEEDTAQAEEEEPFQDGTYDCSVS
UniProt Q5VTR2, whole entry, looked up: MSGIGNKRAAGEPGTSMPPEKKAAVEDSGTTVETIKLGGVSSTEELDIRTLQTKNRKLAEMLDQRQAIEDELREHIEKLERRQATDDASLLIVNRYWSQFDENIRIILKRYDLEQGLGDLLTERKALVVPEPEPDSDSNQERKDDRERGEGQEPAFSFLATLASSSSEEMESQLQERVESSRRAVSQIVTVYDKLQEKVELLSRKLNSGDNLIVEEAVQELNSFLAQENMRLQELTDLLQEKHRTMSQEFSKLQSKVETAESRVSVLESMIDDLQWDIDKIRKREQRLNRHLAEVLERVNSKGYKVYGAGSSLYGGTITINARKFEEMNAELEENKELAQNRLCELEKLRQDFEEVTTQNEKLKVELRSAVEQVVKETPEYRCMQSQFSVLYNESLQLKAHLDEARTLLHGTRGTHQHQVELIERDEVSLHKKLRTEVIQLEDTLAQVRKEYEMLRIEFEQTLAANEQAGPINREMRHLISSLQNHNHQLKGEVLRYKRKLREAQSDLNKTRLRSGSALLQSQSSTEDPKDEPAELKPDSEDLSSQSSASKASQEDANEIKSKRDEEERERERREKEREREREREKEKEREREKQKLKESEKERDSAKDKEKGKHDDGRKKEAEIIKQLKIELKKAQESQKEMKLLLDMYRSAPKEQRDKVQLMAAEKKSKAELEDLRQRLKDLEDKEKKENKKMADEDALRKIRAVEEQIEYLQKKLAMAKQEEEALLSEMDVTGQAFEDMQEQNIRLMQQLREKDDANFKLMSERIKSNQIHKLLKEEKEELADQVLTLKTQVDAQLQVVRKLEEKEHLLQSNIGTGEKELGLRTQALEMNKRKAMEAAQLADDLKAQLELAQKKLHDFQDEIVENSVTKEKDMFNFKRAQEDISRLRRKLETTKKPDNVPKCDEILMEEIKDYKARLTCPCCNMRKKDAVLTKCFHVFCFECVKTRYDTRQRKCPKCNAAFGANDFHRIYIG
UniProt Q9Y225: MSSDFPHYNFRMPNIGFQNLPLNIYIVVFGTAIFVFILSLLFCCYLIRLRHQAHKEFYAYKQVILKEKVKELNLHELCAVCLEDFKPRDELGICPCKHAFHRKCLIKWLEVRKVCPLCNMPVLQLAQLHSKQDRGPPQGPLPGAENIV
UniProt Q02161: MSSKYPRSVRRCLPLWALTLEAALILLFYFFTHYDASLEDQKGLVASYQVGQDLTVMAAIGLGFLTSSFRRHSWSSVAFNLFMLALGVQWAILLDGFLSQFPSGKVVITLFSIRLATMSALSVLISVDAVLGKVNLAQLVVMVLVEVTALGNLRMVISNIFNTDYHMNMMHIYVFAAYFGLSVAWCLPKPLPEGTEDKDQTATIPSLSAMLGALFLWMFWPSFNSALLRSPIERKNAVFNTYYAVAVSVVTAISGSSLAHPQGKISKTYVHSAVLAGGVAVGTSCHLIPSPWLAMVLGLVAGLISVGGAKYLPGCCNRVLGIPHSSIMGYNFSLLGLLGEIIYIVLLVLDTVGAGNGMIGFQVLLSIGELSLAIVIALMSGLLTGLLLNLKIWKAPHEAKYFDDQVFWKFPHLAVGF
UniProt Q5VTB9: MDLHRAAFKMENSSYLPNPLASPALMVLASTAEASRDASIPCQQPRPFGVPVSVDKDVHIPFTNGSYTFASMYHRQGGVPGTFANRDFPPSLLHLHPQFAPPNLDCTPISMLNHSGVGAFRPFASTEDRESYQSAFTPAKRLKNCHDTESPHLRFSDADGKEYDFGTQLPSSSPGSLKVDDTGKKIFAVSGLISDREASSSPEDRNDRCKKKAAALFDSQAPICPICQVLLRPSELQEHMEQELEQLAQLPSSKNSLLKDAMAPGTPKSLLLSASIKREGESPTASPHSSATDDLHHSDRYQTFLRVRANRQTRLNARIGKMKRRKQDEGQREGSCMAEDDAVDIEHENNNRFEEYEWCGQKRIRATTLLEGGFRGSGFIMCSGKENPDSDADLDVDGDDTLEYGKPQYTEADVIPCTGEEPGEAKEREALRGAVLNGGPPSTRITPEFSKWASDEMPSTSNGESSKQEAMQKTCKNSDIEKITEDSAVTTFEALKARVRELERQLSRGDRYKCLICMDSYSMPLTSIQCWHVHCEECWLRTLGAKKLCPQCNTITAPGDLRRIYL

Experiments:
Assay in all cases: log2 fold change, soluble protein after heating vs DMSO (PISA); higher = thermal stabilisation; K562 cells, 10 uM, 30 min; active = over 0.2 and 3.5 SD of the protein, either way, in both replicates (recomputed)
IRAK-1-4 Inhibitor I = compound: C1COCCN1CCN2C3=CC=CC=C3N=C2NC(=O)C4=CC(=CC=C4)[N+](=O)[O-] [IRAK-1-4 Inhibitor I]
In short: (§1)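 K562 cells at 2×10^6 cells/mL were treated with 10 μM compound for 30 min. Aliquots were heated for 3 min across 48°C-58°C, pooled, and extracted in PBS with 0.5% NP-40 at 4°C; soluble protein was the supernatant after 21,000xg for 90 min. Soluble protein was quantified by TMTpro 16plex LC-MS/MS with channel sums equalised, and reported as log2 fold change in thermal stability against DMSO controls, with values from duplicates.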

ibrutinib = compound: C=CC(=O)N1CCC[C@@H](n2nc(-c3ccc(Oc4ccccc4)cc3)c3c(N)ncnc32)C1 [ibrutinib]
In short: as §1

[1] = compound: CC(=O)c1cnc2ccc(-c3cc(Cl)c(O)c(Cl)c3)nc2c1N[C@H]1CC[C@H](CN(C)C)CC1
In short: as §1

ralimetinib = compound: CC(C)(C)Cn1c(N)nc2ccc(-c3[nH]c(C(C)(C)C)nc3-c3ccc(F)cc3)nc21 [ralimetinib]
In short: as §1

[2] = compound: CC(C)(O)CC(=O)NCCn1ccc2ncnc(Nc3ccc(Oc4cccc(C(F)(F)F)c4)c(Cl)c3)c21
In short: as §1

[3] = compound: CC(C)C1=C2N=C(C=C(N2N=C1)NCC3=CC=CC=C3)NCCCCCCN
In short: as §1

[4] = compound: CC(C)C[C@@H](C=O)NC(=O)[C@H](CC(C)C)NC(=O)[C@H](CC(C)C)NC(=O)OCc1ccccc1
In short: as §1

pinometostat = compound: CC(C)N(C[C@H]1O[C@@H](n2cnc3c(N)ncnc32)[C@H](O)[C@@H]1O)[C@H]1C[C@@H](CCc2nc3cc(C(C)(C)C)ccc3[nH]2)C1 [pinometostat]
In short: as §1

[5] = compound: CC1=C(C(CC(=O)N1)C2=CC=C(C=C2)C(F)(F)F)C(=O)NC3=C(C=C4C(=C3)C=NN4)F
In short: as §1

[6] = compound: CC1=C(C2=C(C=C1)C(=O)C3=CC=CC=C3N2CCCN)C
In short: as §1

[7] = compound: CC1=C(C=C(C=C1)NC(=O)C2=CC(=CC=C2)C(C)(C)C#N)NC3=CC4=C(C=C3)N=CN(C4=O)C
In short: as §1

[8] = compound: CC1=C(C=C(C=C1)NC(=O)C2=CC(=CC=C2)N(C)C)NC(=O)C3=CC=C(C=C3)O
In short: as §1

[9] = compound: CC1=CC=C(C=C1)SC2=C3C=C(SC3=CN=C2)C(=O)N
In short: as §1

[10] = compound: CC1=NC(=CC=C1)C2=C(N=C(N2)C(C)(C)C)C3=CC4=NC=CN=C4C=C3
In short: as §1

Nexturastat A = compound: CCCCN(Cc1ccc(C(=O)NO)cc1)C(=O)Nc1ccccc1 [Nexturastat A]
In short: as §1

vemurafenib = compound: CCCS(=O)(=O)Nc1ccc(F)c(C(=O)c2c[nH]c3ncc(-c4ccc(Cl)cc4)cc23)c1F [vemurafenib]
In short: as §1

[11] = compound: CCCS(=O)(=O)Nc1ccc(F)c(C(=O)c2c[nH]c3ncc(Cl)cc23)c1F
In short: as §1

[12] = compound: CCCc1cc(C)[nH]c(=O)c1CNC(=O)c1cc(-c2ccnc(N3CCN(C)CC3)c2)cc2c1cnn2C(C)C
In short: as §1

givinostat = compound: CCN(CC)Cc1ccc2cc(COC(=O)Nc3ccc(C(=O)NO)cc3)ccc2c1 [givinostat]
In short: as §1

barasertib = compound: CCN(CCCOc1ccc2c(Nc3cc(CC(=O)Nc4cccc(F)c4)[nH]n3)ncnc2c1)CCOP(=O)(O)O [barasertib]
In short: as §1

Measured: log2 fold change

RCL1 (UniProt Q9Y2P8)
inactive: IRAK-1-4 Inhibitor I -0.047 | ibrutinib 0.086 | [1] 0.066 | ralimetinib 0.165 | [2] 0 | [3] -0.033 | [4] 0.094 | pinometostat 0.216 | [5] -0.002 | [6] -0.3 | [7] -0.008 | [8] -0.006 | [9] 0.021 | [10] -0.12 | Nexturastat A 0.216 | vemurafenib -0.07 | [11] -0.016 | [12] 0.11 | givinostat 0.101 | barasertib -0.051

RIOK3 (UniProt O14730)
inactive: IRAK-1-4 Inhibitor I 0.087 | ibrutinib 0.002 | [1] 0.024 | ralimetinib -0.009 | [2] -0.083 | [3] -0.009 | [4] 0.021 | pinometostat -0.011 | [7] 0.026 | [8] 0.021 | [9] 0.009 | [10] 0.014 | Nexturastat A -0.094 | vemurafenib -0.012 | [11] -0.012 | [12] 0.011 | givinostat -0.003 | barasertib -0.003
active: [6] -0.231

RIPK1 (UniProt Q13546)
inactive: IRAK-1-4 Inhibitor I -0.104 | ibrutinib -0.081 | [1] -0.201 | ralimetinib 0.195 | [2] -0.023 | [3] -0.23 | [4] 0.14 | pinometostat 0.123 | [6] 0.056 | [7] 0.101 | [8] -0.043 | [9] -0.002 | [10] -0.178 | Nexturastat A 0.109 | vemurafenib 0.054 | [11] 0.135 | [12] 0.092 | givinostat 0.094 | barasertib 0.085

RHOG (UniProt P84095)
inactive: IRAK-1-4 Inhibitor I 0.078 | ibrutinib 0.003 | [1] 0.027 | ralimetinib -0.009 | [2] 0.018 | [3] 0.079 | [4] -0.06 | pinometostat -0.019 | [5] -0.022 | [6] 0.067 | [7] 0.039 | [8] 0.031 | [9] -0.007 | [10] 0.02 | Nexturastat A -0.079 | vemurafenib -0.04 | [11] -0.023 | [12] -0.034 | givinostat -0.031 | barasertib 0.008

RHEB (UniProt Q15382)
active: Nexturastat A -0.277
inactive: IRAK-1-4 Inhibitor I 0.006 | ibrutinib -0.016 | [1] -0.04 | ralimetinib -0.112 | [2] -0.01 | [3] 0.027 | [4] -0.055 | pinometostat -0.035 | [6] 0.093 | [7] 0.008 | [8] -0.002 | [9] 0.008 | [10] 0.052 | vemurafenib -0.004 | [11] 0.021 | [12] -0.026 | givinostat -0.009 | barasertib 0.014

RCC1 isoform 2 (UniProt P18754)
active: [6] -0.899
inactive: IRAK-1-4 Inhibitor I -0.026 | ibrutinib -0.04 | [1] -0.14 | ralimetinib 0 | [2] -0.16 | [3] -0.094 | [4] 0.041 | pinometostat 0.023 | [7] 0.197 | [8] -0.129 | [9] 0.073 | [10] 0.055 | Nexturastat A -0.027 | vemurafenib 0.13 | [11] 0.104 | [12] 0.111 | givinostat 0.087 | barasertib 0.053

RMDN1 (UniProt Q96DB5)
inactive: IRAK-1-4 Inhibitor I 0.065 | ibrutinib 0.006 | [1] -0.068 | ralimetinib -0.032 | [2] -0.004 | [3] -0.031 | [4] -0.005 | pinometostat -0.017 | [5] 0.001 | [6] 0.025 | [7] -0.036 | [8] 0.01 | [9] 0.023 | [10] 0.033 | Nexturastat A -0.015 | vemurafenib 0.043 | [11] 0.022 | [12] -0.028 | givinostat 0.001 | barasertib 0.026

RIPK2 (UniProt O43353)
inactive: IRAK-1-4 Inhibitor I 0.056 | ibrutinib 0.102 | [1] -0.154 | ralimetinib -0.035 | [2] 0.066 | [3] 0.037 | [4] 0 | pinometostat 0.003 | [5] 0.002 | [6] 0.013 | [7] -0.118 | [8] 0.078 | [9] 0.01 | [10] 0.086 | Nexturastat A 0.021 | vemurafenib 0.119 | [11] 0.059 | [12] 0.016 | givinostat -0.048 | barasertib 0.009

RFC5 (UniProt P40937)
inactive: IRAK-1-4 Inhibitor I 0.022 | ibrutinib 0.012 | [1] -0.034 | ralimetinib -0.028 | [2] -0.038 | [3] -0.046 | [4] -0.011 | pinometostat -0.013 | [5] 0.026 | [6] -0.002 | [7] -0.041 | [8] 0.027 | [9] 0.045 | [10] 0.033 | Nexturastat A -0.085 | vemurafenib 0 | [11] 0.013 | [12] -0.015 | givinostat 0.022 | barasertib 0.029

RFX1 (UniProt P22670)
inactive: IRAK-1-4 Inhibitor I 0.008 | ibrutinib -0.029 | [1] 0 | ralimetinib -0.05 | [2] -0.077 | [3] 0.044 | [4] 0.014 | pinometostat -0.038 | [5] 0.017 | [6] 0.015 | [7] 0.071 | [8] 0.002 | [9] 0.02 | [10] -0.027 | Nexturastat A -0.119 | vemurafenib -0.034 | [11] 0.073 | [12] 0.05 | givinostat -0.082 | barasertib 0.009

Four consecutive records already listed:
RIPK1 (UniProt Q13546)
inactive: IRAK-1-4 Inhibitor I -0.104 | ibrutinib -0.081 | [1] -0.201 | ralimetinib 0.195 | [2] -0.023 | [3] -0.23 | [4] 0.14 | pinometostat 0.123 | [6] 0.056 | [7] 0.101 | [8] -0.043 | [9] -0.002 | [10] -0.178 | Nexturastat A 0.109 | vemurafenib 0.054 | [11] 0.135 | [12] 0.092 | givinostat 0.094 | barasertib 0.085

RHOG (UniProt P84095)
inactive: IRAK-1-4 Inhibitor I 0.078 | ibrutinib 0.003 | [1] 0.027 | ralimetinib -0.009 | [2] 0.018 | [3] 0.079 | [4] -0.06 | pinometostat -0.019 | [5] -0.022 | [6] 0.067 | [7] 0.039 | [8] 0.031 | [9] -0.007 | [10] 0.02 | Nexturastat A -0.079 | vemurafenib -0.04 | [11] -0.023 | [12] -0.034 | givinostat -0.031 | barasertib 0.008

RHEB (UniProt Q15382)
active: Nexturastat A -0.277
inactive: IRAK-1-4 Inhibitor I 0.006 | ibrutinib -0.016 | [1] -0.04 | ralimetinib -0.112 | [2] -0.01 | [3] 0.027 | [4] -0.055 | pinometostat -0.035 | [6] 0.093 | [7] 0.008 | [8] -0.002 | [9] 0.008 | [10] 0.052 | vemurafenib -0.004 | [11] 0.021 | [12] -0.026 | givinostat -0.009 | barasertib 0.014

RCC1 isoform 2 (UniProt P18754)
active: [6] -0.899
inactive: IRAK-1-4 Inhibitor I -0.026 | ibrutinib -0.04 | [1] -0.14 | ralimetinib 0 | [2] -0.16 | [3] -0.094 | [4] 0.041 | pinometostat 0.023 | [7] 0.197 | [8] -0.129 | [9] 0.073 | [10] 0.055 | Nexturastat A -0.027 | vemurafenib 0.13 | [11] 0.104 | [12] 0.111 | givinostat 0.087 | barasertib 0.053

(cont.)

REEP6 (UniProt Q96HR9)
inactive: IRAK-1-4 Inhibitor I 0 | ibrutinib -0.027 | [1] 0.012 | ralimetinib -0.115 | [2] 0.05 | [3] 0.024 | [4] -0.019 | pinometostat -0.005 | [5] -0.024 | [6] 0.032 | [7] -0.073 | [8] -0.069 | [9] 0.01 | [10] -0.007 | Nexturastat A -0.044 | vemurafenib -0.138 | [11] -0.002 | [12] -0.097 | givinostat 0.001 | barasertib 0.078

RIC1 (UniProt Q4ADV7)
inactive: IRAK-1-4 Inhibitor I -0.086 | ibrutinib -0.138 | [1] 0.022 | ralimetinib 0.009 | [2] -0.205 | [3] -0.075 | [4] -0.051 | pinometostat 0.059 | [5] -0.171 | [7] 0.046 | [8] 0.023 | [9] 0.065 | [10] 0.076 | Nexturastat A 0.094 | vemurafenib -0.061 | [11] 0.031 | [12] -0.194 | givinostat 0.116 | barasertib 0.144

RNF20 (UniProt Q5VTR2)
inactive: IRAK-1-4 Inhibitor I -0.086 | ibrutinib -0.055 | [1] -0.016 | ralimetinib -0.088 | [2] -0.074 | [3] -0.189 | [4] 0.096 | pinometostat -0.039 | [5] 0.016 | [6] -0.115 | [7] 0.065 | [8] -0.069 | [9] -0.007 | [10] 0.001 | Nexturastat A -0.07 | [11] 0.06 | [12] 0.02 | givinostat -0.006 | barasertib -0.021

RNF24 isoform 2 (UniProt Q9Y225)
inactive: IRAK-1-4 Inhibitor I -0.076 | ibrutinib -0.095 | ralimetinib 0.036 | [2] -0.242 | [3] 0.019 | [4] -0.068 | pinometostat 0.014 | [5] 0.153 | [8] -0.066 | [9] -0.123 | [10] -0.024 | Nexturastat A -0.097 | vemurafenib -0.119 | [11] -0.296 | givinostat -0.006 | barasertib -0.023

RHD (UniProt Q02161)
inactive: IRAK-1-4 Inhibitor I -0.018 | [1] 0.003 | [3] -0.059 | pinometostat -0.031 | [5] -0.08 | [6] 0.055 | [9] 0.031 | [10] -0.075 | [11] -0.1 | givinostat 0.129

RNF220 (UniProt Q5VTB9)
inactive: IRAK-1-4 Inhibitor I 0.017 | ibrutinib -0.032 | [1] -0.02 | ralimetinib -0.045 | [2] 0.021 | [3] -0.011 | [4] -0.046 | pinometostat -0.076 | [6] 0.004 | [7] -0.01 | [8] -0.086 | [9] 0.008 | [10] 0.047 | Nexturastat A 0.008 | vemurafenib -0.001 | [11] -0.001 | [12] -0.023 | givinostat 0.038 | barasertib 0.016

RBM8A (UniProt Q9Y5S9)
inactive: IRAK-1-4 Inhibitor I -0.027 | ibrutinib -0.017 | [1] 0.127 | ralimetinib -0.015 | [2] -0.002 | [3] 0.128 | [4] 0.024 | pinometostat -0.015 | [6] 0.027 | [7] -0.025 | [8] -0.024 | [9] -0.02 | [10] 0.075 | Nexturastat A -0.069 | vemurafenib 0.024 | [11] -0.001 | [12] 0.04 | givinostat -0.032 | barasertib 0.043
